These are yes or no findings as the source states them, for the method shown. Binding seen in cells or lysates may run through a third protein. Binding can be weak; no strength is given.
Molecular target: FLAG-TNF (UniProt P01375)
Assay: co-IP; HT-29 cells treated with FLAG-TNF, FLAG-TNF/S/Z or FLAG-TNF/CHX/Z for 1 h; lysates precipitated with anti-FLAG beads to isolate complex I; Western blotting; only the target purified

Chains of the proteins cited; added tags and fusions are not shown. Lines headed by an entry give the natural chain unless they say otherwise; changes in a name come on top.
UniProt P01375: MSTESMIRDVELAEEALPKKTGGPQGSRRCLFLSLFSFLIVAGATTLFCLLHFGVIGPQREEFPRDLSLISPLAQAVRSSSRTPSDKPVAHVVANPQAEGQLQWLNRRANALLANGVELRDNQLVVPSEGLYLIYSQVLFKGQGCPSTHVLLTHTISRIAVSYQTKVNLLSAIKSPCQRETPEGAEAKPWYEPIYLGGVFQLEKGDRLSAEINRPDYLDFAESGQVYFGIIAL
UniProt B7ZBB8: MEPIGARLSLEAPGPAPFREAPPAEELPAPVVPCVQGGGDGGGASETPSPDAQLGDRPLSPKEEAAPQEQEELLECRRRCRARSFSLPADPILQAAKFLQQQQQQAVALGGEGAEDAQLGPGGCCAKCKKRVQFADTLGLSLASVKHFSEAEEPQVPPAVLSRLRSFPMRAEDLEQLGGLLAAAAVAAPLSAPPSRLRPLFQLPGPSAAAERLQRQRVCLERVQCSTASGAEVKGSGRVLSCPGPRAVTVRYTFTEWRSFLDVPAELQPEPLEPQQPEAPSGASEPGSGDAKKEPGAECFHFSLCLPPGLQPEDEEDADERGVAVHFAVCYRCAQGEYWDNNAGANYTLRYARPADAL

PPP1R3G (protein phosphatase 1 regulatory subunit 3G), endogenous in HT-29 cells (from UniProt B7ZBB8 1-358)
binding: binds

Source: article PMC8642546
